Data on 1 molecule can be found in publication doi:10.1101/2025.06.16.658187.

In this assay the target is T1, Flag-tagged TRF1, P54274.
T1 chain: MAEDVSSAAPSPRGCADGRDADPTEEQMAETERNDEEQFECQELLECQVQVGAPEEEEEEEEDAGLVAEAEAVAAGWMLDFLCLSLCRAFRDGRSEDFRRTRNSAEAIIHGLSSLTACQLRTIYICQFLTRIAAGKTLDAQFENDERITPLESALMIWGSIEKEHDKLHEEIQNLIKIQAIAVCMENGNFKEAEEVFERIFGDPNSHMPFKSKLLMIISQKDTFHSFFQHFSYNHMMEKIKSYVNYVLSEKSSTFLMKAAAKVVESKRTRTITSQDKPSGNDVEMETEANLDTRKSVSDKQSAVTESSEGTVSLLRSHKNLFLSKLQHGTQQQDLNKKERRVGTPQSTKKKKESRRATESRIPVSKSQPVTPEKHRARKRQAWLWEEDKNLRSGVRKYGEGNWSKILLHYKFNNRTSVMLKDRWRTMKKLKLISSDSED
Kind of assay: co-IP. Particulars: remark: other sources report otherwise.

Results are given in words; binding and its absence hold for the method and conditions named. Binding seen in cells or lysates may run through a third protein. Tags and fused reporters may be left off the sequences shown.

B1: Tripartite motif-containing 28 (TRIM28), endogenous in BJ^T cells, Q13263 1-835 (protein)
chain: MAASAAAASAAAASAASGSPGPGEGSAGGEKRSTAPSAAASASASAAASSPAGGGAEALELLEHCGVCRERLRPEREPRLLPCLHSACSACLGPAAPAAANSSGDGGAAGDGTVVDCPVCKQQCFSKDIVENYFMRDSGSKAATDAQDANQCCTSCEDNAPATSYCVECSEPLCETCVEAHQRVKYTKDHTVRSTGPAKSRDGERTVYCNVHKHEPLVLFCESCDTLTCRDCQLNAHKDHQYQFLEDAVRNQRKLLASLVKRLGDKHATLQKSTKEVRSSIRQVSDVQKRVQVDVKMAILQIMKELNKRGRVLVNDAQKVTEGQQERLERQHWTMTKIQKHQEHILRFASWALESDNNTALLLSKKLIYFQLHRALKMIVDPVEPHGEMKFQWDLNAWTKSAEAFGKIVAERPGTNSTGPAPMAPPRAPGPLSKQGSGSSQPMEVQEGYGFGSGDDPYSSAEPHVSGVKRSRSGEGEVSGLMRKVPRVSLERLDLDLTADSQPPVFKVFPGSTTEDYNLIVIERGAAAAATGQPGTAPAGTPGAPPLAGMAIVKEEETEAAIGAPPTATEGPETKPVLMALAEGPGAEGPRLASPSGSTSSGLEVVAPEGTSAPGGGPGTLDDSATICRVCQKPGDLVMCNQCEFCFHLDCHLPALQDVPGEEWSCSLCHVLPDLKEEDGSLSLDGADSTGVVAKLSPANQRKCERVLLALFCHEPCRPLHQLATDSTFSLDQPGGTLDLTLIRARLQEKLSPPYSSPQEFAQDVGRMFKQFNKLTEDKADVQSIIGLQRFFETRMNEAFGDTKFSAVLVEPPPMSLPGAGLSSQELSGGPGDGP
Consider B1, for which the binding result is “no binding”.
